Test results reported in article PMC2776356 (2009).
Results are given in words; binding and its absence hold for the method and conditions named. Binding can be weak; no strength is given.

Sequences of proteins named here, by UniProt entry; tags and fusion partners are left off. A change or cut given only in a name is not applied to a line headed by its entry.
UniProt Q969G9: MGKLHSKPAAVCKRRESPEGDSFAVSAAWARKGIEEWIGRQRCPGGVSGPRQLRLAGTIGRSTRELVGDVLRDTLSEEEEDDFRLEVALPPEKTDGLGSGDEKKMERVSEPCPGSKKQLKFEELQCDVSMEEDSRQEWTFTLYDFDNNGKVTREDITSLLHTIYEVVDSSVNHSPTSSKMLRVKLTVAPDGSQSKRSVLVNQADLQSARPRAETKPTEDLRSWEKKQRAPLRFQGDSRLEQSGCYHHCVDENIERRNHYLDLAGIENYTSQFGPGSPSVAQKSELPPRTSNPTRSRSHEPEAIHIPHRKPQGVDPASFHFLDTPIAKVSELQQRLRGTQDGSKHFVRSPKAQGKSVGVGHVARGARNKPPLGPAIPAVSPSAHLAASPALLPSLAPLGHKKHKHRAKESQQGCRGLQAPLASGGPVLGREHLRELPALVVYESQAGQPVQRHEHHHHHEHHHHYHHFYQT
UniProt O14641: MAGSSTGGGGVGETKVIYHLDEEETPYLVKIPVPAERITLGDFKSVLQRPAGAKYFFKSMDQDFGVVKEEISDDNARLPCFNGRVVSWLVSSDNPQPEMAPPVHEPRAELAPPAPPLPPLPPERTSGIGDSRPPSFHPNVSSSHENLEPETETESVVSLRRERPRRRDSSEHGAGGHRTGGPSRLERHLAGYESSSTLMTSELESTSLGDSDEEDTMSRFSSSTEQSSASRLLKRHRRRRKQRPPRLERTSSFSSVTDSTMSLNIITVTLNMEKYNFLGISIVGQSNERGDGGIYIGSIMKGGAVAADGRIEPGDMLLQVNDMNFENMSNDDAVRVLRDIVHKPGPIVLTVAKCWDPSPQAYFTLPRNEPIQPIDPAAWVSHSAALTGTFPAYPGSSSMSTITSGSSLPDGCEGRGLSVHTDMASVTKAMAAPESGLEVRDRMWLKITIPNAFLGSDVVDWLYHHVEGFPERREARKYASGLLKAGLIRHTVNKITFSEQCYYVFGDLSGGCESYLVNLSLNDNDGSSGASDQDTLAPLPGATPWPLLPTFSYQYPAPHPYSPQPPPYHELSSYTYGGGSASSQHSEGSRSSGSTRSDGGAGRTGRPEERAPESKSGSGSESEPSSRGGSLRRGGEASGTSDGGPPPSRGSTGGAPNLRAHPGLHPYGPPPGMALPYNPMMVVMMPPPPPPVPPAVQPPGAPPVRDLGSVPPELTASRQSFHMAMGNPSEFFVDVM

Molecular target: Nkd1^1–286 with the 30aa motif deleted (yeast two-hybrid bait) (human) (UniProt Q969G9)
Assay: two-hybrid; Nkd1 baits in pAS2-1, Dvl preys in pAct2, yeast reporter strain Y190; growth on triple dropout (-Leu-Trp-His) with 50 mM 3-AT against double dropout (-Leu-Trp); quantitative ONPG assay

Dvl2 (yeast two-hybrid prey) (from UniProt O14641 1-736)
binding: binds

B1: Dvl1 (yeast two-hybrid prey) (protein, UniProt O14640 1-695)
chain: MAETKIIYHMDEEETPYLVKLPVAPERVTLADFKNVLSNRPVHAYKFFFKSMDQDFGVVKEEIFDDNAKLPCFNGRVVSWLVLAEGAHSDAGSQGTDSHTDLPPPLERTGGIGDSRPPSFHPNVASSRDGMDNETGTESMVSHRRERARRRNREEAARTNGHPRGDRRRDVGLPPDSASTALSSELESSSFVDSDEDGSTSRLSSSTEQSTSSRLIRKHKRRRRKQRLRQADRASSFSSITDSTMSLNIVTVTLNMERHHFLGISIVGQSNDRGDGGIYIGSIMKGGAVAADGRIEPGDMLLQVNDVNFENMSNDDAVRVLREIVSQTGPISLTVAKCWDPTPRSYFTVPRADPVRPIDPAAWLSHTAALTGALPRYGTSPCSSAVTRTSSSSLTSSVPGAPQLEEAPLTVKSDMSAVVRVMQLPDSGLEIRDRMWLKITIANAVIGADVVDWLYTHVEGFKERREARKYASSLLKHGFLRHTVNKITFSEQCYYVFGDLCSNLATLNLNSGSSGTSDQDTLAPLPHPAAPWPLGQGYPYQYPGPPPCFPPAYQDPGFSYGSGSTGSQQSEGSKSSGSTRSSRRAPGREKERRAAGAGGSGSESDHTAPSGVGSSWRERPAGQLSRGSSPRSQASATAPGLPPPHPTTKAYTVVGGPPGGPPVRELAAVPPELTGSRQSFQKAMGNPCEFFVDIM
binding: binds
